Assay results taken from PMC11087952, “Biochemical characterization of Escherichia coli DnaC variants that alter DnaB helicase loading onto DNA” (The Journal of Biological Chemistry, 2024).
No constants are given. Whether binding was seen depends on the method and setting. Binding can be weak; no strength is given.

The chains behind the UniProt entries cited, without tags or fusion partners. Where a name states a change or a piece, a line headed by the entry shows the natural chain unless it says otherwise.
UniProt P0ACB0: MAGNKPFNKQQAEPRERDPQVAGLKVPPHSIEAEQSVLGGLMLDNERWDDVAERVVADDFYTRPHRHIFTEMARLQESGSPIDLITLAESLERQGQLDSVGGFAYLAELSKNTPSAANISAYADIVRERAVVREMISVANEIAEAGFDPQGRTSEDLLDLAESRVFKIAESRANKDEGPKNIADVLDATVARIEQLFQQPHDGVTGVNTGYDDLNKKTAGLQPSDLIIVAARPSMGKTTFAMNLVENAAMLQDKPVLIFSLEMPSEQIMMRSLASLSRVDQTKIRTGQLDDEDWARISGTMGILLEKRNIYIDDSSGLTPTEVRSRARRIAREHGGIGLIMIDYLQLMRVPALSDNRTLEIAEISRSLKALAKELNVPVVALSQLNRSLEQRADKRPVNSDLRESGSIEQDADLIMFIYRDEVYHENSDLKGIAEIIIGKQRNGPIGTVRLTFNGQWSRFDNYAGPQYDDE
UniProt P0AEF0: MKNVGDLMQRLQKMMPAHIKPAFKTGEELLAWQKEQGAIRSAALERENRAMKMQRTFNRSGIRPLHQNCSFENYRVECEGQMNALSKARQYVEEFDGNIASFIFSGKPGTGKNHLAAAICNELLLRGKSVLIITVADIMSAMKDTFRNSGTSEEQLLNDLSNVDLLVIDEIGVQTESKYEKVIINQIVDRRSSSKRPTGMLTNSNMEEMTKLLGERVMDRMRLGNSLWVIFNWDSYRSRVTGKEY

Target: Escherichia coli DnaB replicative helicase (wild-type) (E. coli) (UniProt P0ACB0)
Test: SEC; 10 nmol DnaB and 12 nmol DnaC (1.2:1 DnaC:DnaB) in 20 mM Tris-HCl pH 8.5, 0.2 M NaCl, 5 mM MgCl2, 1 mM BME, 1 mM ATP; analytical size exclusion column (Increase 10/300 GL); peak fractions analysed by PAGE for DnaB and DnaC; both purified

Substance	binding
DnaC 1331 (A84T) (from UniProt P0AEF0)	binds
DnaC 824 (N225Y; also printed N255Y) (from UniProt P0AEF0)	binds
